For at least one entry, the source does not settle the construct or the ends of the probe. For some assays here: No signal at the amounts used counts as a negative. For some assays here: Where a protein sequence is shown, tags need not be part of it.
Assays:
GST (control) = GST (control) (UniProt P08515); assay: EMSA; details: 1 ug GST alone control; non-binding implied by stated specificity; purified recombinant protein; protein details: GST alone; label: 32P
PEA3 (GST-PEA3 fusion) = target: T1, PEA3 (GST-PEA3 fusion) (UniProt P28322); assay: EMSA; details: purified recombinant protein; protein details: GST fusion; label: 32P
T1 sequence (limits assumed): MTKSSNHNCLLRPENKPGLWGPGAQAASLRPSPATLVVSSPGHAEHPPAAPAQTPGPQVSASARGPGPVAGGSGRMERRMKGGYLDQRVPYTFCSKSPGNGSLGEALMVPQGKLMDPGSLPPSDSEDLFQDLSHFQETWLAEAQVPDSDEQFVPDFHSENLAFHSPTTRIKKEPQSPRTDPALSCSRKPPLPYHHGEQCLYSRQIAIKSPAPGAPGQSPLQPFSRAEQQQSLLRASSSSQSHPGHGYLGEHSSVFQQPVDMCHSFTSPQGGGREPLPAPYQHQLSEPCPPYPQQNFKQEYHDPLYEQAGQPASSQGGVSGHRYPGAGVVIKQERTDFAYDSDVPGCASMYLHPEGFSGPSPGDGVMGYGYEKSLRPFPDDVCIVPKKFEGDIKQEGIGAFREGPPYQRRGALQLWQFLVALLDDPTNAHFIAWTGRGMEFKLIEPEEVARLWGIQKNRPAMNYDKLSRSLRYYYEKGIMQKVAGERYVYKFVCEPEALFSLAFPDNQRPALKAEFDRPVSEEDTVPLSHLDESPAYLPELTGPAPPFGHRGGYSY

The chains behind the UniProt entries cited, without tags or fusion partners. Where a name states a change or a piece, a line headed by the entry shows the natural chain unless it says otherwise.
UniProt P08515, whole entry: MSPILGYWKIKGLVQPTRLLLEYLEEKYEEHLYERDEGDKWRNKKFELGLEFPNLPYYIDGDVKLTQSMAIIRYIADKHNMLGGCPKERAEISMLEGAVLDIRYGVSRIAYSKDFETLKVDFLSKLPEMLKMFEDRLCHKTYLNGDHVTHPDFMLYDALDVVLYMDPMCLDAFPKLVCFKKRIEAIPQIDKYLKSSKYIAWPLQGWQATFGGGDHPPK
UniProt P28322: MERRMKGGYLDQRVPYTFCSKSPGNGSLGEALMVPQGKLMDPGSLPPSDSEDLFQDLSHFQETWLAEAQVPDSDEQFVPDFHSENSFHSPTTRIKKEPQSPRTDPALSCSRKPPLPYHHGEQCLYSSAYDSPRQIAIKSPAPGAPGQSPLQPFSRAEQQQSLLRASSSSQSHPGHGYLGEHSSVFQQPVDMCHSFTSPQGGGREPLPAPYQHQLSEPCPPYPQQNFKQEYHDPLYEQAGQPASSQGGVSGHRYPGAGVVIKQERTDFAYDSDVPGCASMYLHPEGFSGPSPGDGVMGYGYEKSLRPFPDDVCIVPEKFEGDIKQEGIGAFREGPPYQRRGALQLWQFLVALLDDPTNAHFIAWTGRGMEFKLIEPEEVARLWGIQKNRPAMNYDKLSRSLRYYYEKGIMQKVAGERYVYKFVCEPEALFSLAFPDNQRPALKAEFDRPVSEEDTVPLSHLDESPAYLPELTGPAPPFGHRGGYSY

“AGGAAG (double strand) [HER-2/neu promoter oligonucleotide with PEA3 site]”: no binding (GST (control)); binds (PEA3 (GST-PEA3 fusion)).

From patent publication US5922688
